Reference: publication PMC9935730
No constants are given. Whether binding was seen depends on the method and setting. Each block holds one substance with its values, some of them ahead of it.

Sequences of proteins named here, by UniProt entry; tags and fusion partners are left off. A change or cut given only in a name is not applied to a line headed by its entry. A line that says so, or that is headed by a name, gives the form on record, which may keep a tag or linker. Residues count along the entry.
Catalytic domain of Par17, residues 60-156 (Q9Y237, residues 35-131): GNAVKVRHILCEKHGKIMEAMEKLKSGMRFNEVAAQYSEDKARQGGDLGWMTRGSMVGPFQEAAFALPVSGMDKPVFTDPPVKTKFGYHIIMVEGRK
Recombinant human Parvulin 17, full-length, N-terminally His6-tagged (Q9Y237-2, form named): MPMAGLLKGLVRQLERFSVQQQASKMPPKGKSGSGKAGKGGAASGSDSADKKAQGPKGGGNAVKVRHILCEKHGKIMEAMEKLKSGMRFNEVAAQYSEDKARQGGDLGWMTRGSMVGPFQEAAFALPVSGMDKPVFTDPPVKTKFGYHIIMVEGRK
UniProt Q13526, residues 50-163: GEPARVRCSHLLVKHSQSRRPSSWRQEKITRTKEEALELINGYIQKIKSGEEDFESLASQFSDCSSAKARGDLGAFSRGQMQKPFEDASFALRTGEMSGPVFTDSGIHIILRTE

Columns and labels:
[1] = molecular target: Catalytic domain of Par17, residues 60-156 (human) (UniProt Q9Y237); experiment: SEC; Superdex 75 10/300, 0.5 ml/min, Tris–HCl 50 mM pH 8.5, 150 mM NaCl; molecular weights estimated from a calibration curve of standards; both purified
[2] = molecular target: Catalytic domain of Pin1, residues 50-163 (human) (UniProt Q13526); experiment: as above
[3] = molecular target: Recombinant human Parvulin 17, full-length, N-terminally His6-tagged (human) (UniProt Q9Y237); experiment: condition: only the monomeric form isolated by SEC and run again; SEC; the monomeric form of Par17 isolated by SEC and analysed by SEC again (Fig. 3A, inset); both purified

- binding [1]: no binding
Substance: Catalytic domain of Par17, residues 60-156 (from UniProt Q9Y237-2 60-156) (domain or fragment)

- binding [2]: no binding
Substance: Catalytic domain of Pin1, residues 50-163 (from UniProt Q13526 50-163) (domain or fragment)

- binding [3]: no binding
Substance: Recombinant human Parvulin 17, full-length, N-terminally His6-tagged (from UniProt Q9Y237-2 1-156) (enzyme)
